From the supplement of paper PMC10849652
The list shows a part of the results.

By UniProt entry, the sequences of proteins in these tests, tags left out. Where a name states a change or a piece, a line headed by the entry shows the natural chain unless it says otherwise.
UniProt P30419: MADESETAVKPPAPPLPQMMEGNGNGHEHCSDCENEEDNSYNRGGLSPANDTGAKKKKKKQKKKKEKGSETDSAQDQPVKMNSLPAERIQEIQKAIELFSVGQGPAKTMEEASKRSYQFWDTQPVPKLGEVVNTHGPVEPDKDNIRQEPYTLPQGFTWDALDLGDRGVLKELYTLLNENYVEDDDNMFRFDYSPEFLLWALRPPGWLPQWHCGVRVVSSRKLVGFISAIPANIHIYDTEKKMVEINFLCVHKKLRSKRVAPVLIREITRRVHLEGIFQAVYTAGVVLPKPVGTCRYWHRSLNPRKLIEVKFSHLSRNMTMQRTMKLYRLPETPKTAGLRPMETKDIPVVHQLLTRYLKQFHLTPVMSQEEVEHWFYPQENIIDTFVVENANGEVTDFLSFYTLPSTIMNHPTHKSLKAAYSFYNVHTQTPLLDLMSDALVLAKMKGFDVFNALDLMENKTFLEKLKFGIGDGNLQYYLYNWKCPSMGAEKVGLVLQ
UniProt Q9NZJ9: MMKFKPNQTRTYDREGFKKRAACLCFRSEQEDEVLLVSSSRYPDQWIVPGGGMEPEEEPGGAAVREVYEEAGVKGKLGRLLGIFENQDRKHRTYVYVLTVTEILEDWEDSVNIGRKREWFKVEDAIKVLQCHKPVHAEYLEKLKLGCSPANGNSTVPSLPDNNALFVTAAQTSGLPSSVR
UniProt Q8NE18: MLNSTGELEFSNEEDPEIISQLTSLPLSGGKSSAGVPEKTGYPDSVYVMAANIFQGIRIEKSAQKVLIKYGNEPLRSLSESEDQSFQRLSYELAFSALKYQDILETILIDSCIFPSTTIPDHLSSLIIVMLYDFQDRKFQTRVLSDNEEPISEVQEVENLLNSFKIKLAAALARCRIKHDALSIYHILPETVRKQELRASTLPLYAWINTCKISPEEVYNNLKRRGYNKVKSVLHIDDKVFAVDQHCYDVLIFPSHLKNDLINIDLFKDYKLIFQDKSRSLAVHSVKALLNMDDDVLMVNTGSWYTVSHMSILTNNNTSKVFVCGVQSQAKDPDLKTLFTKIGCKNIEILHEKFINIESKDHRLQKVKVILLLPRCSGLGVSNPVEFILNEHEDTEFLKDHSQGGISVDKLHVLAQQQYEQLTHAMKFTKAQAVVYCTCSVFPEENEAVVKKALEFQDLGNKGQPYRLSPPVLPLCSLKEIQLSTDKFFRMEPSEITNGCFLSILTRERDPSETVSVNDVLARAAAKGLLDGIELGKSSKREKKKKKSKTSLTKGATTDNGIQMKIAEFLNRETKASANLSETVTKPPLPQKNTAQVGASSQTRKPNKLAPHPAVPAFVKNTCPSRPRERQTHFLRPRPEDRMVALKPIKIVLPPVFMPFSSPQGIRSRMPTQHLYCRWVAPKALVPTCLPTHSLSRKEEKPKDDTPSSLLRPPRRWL
UniProt P24468: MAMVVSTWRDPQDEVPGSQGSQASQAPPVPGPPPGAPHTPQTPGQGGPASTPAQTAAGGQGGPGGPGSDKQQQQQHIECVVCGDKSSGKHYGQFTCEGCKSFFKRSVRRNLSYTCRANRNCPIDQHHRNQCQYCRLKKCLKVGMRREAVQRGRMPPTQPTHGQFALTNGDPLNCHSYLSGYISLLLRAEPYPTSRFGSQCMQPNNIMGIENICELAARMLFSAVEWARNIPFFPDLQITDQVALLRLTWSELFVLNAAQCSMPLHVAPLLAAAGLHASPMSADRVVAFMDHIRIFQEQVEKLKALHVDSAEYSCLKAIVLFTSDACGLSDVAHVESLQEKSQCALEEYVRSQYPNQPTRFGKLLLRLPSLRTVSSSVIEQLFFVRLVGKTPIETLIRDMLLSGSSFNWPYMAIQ
UniProt O60361, whole entry, looked up: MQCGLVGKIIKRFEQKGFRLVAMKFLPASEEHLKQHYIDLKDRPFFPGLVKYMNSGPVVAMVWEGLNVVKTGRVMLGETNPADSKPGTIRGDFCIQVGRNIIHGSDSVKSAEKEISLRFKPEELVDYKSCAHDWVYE
UniProt O75052: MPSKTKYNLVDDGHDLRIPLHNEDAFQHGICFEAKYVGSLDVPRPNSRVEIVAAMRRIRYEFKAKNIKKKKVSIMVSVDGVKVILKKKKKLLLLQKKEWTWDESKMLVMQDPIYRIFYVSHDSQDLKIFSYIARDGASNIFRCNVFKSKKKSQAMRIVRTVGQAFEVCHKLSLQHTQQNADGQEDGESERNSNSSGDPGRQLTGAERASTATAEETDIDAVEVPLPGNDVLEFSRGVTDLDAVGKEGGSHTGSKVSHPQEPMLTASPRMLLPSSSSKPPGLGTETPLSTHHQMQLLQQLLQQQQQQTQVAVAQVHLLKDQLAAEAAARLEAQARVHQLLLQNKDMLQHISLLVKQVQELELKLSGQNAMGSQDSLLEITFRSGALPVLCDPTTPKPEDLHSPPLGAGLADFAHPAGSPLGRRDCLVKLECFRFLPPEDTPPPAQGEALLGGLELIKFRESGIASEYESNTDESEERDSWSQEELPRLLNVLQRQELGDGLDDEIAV
UniProt P48552: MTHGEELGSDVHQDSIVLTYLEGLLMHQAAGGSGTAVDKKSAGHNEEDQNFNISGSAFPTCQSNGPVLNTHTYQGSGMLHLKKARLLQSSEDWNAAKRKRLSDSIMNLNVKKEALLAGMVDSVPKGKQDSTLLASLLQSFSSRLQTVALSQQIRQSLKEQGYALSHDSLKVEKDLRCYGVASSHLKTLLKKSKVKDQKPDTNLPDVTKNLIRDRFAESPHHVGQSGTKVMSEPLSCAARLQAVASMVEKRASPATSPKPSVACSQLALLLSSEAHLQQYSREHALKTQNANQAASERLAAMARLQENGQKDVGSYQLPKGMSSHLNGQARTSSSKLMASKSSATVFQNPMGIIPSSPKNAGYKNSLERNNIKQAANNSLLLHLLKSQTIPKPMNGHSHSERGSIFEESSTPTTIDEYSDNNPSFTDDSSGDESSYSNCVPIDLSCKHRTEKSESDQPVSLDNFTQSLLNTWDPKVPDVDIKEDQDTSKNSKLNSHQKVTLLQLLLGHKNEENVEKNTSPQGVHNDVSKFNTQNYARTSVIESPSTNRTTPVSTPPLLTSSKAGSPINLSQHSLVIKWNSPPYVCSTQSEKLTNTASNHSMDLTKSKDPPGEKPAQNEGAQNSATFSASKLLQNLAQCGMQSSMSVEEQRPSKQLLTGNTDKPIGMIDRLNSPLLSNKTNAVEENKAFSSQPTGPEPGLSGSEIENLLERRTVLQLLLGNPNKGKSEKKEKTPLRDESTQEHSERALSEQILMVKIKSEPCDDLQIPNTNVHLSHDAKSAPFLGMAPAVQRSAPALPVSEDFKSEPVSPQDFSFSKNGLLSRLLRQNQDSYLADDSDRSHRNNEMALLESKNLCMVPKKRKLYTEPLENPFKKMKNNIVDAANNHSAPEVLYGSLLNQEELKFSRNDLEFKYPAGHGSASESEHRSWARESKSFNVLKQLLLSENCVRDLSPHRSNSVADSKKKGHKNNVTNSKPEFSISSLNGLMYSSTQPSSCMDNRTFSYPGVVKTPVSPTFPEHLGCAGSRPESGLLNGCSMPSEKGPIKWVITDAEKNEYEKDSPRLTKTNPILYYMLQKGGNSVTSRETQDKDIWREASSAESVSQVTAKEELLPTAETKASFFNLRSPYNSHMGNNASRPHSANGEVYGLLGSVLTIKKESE
UniProt P61916: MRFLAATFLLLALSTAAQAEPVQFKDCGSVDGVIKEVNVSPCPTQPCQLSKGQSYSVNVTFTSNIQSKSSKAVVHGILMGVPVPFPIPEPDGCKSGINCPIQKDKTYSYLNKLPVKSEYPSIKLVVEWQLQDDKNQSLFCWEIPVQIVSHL
UniProt Q9BQG2: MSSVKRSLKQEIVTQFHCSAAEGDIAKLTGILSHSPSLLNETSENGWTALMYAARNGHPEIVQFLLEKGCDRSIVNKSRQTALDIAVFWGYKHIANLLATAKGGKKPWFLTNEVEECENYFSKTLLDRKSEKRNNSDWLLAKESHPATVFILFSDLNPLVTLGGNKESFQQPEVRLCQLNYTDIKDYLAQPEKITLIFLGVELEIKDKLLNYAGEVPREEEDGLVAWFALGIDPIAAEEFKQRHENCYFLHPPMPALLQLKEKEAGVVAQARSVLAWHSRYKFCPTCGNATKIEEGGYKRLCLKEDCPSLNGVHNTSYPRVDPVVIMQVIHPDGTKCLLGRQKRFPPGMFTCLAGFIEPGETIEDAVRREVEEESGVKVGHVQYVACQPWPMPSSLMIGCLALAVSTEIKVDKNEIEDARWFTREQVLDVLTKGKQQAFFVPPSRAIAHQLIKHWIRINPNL
UniProt Q16656: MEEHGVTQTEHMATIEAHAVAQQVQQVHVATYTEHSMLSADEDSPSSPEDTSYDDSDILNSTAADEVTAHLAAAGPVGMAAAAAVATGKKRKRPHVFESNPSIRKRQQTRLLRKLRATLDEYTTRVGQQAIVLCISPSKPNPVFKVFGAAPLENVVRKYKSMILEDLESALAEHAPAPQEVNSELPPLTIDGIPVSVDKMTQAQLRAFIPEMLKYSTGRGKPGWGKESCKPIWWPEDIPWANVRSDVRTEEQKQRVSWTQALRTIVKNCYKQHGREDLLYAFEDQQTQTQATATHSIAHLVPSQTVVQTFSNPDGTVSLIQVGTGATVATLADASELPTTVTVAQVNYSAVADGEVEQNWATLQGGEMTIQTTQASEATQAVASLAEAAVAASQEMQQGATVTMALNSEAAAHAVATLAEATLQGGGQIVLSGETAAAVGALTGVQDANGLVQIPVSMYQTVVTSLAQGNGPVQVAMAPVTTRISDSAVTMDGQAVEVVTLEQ
UniProt Q9H7Z3: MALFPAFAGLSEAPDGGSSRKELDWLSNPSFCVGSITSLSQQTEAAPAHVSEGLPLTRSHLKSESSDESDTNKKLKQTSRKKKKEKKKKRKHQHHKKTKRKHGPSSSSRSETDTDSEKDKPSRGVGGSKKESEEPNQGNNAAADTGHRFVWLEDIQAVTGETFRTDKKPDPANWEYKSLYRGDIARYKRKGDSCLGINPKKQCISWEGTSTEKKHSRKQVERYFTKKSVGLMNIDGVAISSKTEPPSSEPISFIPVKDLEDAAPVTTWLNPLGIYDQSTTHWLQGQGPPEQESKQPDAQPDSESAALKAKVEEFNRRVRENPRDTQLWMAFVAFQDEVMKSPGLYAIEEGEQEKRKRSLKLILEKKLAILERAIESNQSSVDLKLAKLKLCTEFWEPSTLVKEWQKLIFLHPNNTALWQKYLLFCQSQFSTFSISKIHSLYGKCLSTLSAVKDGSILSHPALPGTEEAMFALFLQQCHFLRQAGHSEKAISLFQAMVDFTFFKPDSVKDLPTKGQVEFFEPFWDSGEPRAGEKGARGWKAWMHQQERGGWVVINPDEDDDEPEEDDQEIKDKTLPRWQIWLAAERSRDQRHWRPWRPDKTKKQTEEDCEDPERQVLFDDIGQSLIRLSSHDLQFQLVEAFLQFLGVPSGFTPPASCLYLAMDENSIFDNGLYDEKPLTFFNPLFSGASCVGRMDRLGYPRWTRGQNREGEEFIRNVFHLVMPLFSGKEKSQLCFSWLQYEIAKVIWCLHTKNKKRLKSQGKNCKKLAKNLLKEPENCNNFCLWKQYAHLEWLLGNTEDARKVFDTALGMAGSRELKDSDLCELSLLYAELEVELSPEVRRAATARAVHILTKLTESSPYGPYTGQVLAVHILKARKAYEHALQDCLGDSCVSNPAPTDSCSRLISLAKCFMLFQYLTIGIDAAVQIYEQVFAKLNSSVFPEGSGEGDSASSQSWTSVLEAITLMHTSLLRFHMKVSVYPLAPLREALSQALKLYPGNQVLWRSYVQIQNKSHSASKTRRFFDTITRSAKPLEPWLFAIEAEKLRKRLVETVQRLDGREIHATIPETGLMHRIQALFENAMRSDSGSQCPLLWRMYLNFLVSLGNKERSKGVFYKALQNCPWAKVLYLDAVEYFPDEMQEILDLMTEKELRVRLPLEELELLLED
UniProt Q9BXD5: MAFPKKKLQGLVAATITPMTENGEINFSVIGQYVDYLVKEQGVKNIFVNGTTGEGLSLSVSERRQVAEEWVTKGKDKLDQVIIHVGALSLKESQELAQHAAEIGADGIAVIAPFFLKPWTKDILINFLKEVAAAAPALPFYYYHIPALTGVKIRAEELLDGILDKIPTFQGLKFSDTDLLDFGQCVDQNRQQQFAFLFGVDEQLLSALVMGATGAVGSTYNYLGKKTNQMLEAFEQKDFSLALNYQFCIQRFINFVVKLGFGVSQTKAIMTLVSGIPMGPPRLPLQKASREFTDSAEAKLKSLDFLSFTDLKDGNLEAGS
UniProt Q96CB9: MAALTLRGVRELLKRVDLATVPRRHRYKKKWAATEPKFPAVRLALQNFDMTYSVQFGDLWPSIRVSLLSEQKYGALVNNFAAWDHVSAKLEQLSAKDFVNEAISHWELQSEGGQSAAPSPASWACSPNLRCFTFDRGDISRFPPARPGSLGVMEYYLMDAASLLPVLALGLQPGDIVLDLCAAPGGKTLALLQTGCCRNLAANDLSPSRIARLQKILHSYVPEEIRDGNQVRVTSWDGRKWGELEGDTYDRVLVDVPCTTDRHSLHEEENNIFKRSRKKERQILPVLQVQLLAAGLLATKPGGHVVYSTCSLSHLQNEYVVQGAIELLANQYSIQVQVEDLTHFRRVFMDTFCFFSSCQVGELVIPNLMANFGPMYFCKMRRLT

Assays:
Experiment in all cases: log2 fold change, soluble protein after heating vs DMSO (PISA); higher = thermal stabilisation; K562 lysate, 10 uM; active = over 0.2 and 3.5 SD of the protein, either way, in both replicates (recomputed)
lapatinib = compound: CS(=O)(=O)CCNCc1ccc(-c2ccc3ncnc(Nc4ccc(OCc5cccc(F)c5)c(Cl)c4)c3c2)o1 [lapatinib]
Outline: (§1)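 Log-two fold change in thermal stability relative to solvent controls is reported from duplicates. For each sample, crude K562 extract from dounce-homogenised pellets in PBS pH 7.4 with 1 mM MgCl2, at 1 mg/mL protein, was treated with 10 μM compound for 30 min. Aliquots heated for 3 min across 48°C-58°C were pooled, brought to 0.5% NP-40 at 4°C and cleared at 21,000xg for 90 min. The supernatant was quantified by TMTpro 16plex LC-MS/MS with channel sums equalised.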

pictilisib = compound: CS(=O)(=O)N1CCN(Cc2cc3nc(-c4cccc5[nH]ncc45)nc(N4CCOCC4)c3s2)CC1 [pictilisib]
Outline: as §1

crizotinib = compound: C[C@@H](Oc1cc(-c2cnn(C3CCNCC3)c2)cnc1N)c1c(Cl)ccc(F)c1Cl [crizotinib]
Outline: as §1

[1] = compound: C[C@H](C1=CC=C(C=C1)C(=O)NC2=C3C=CNC3=NC=C2)N
Outline: as §1

duvelisib = compound: C[C@H](Nc1ncnc2nc[nH]c12)c1cc2cccc(Cl)c2c(=O)n1-c1ccccc1 [duvelisib]
Outline: as §1

gandotinib = compound: Cc1cc(Nc2cc(CN3CCOCC3)c3nc(C)c(Cc4ccc(Cl)cc4F)n3n2)n[nH]1 [gandotinib]
Outline: as §1

tozasertib = compound: Cc1cc(Nc2cc(N3CCN(C)CC3)nc(Sc3ccc(NC(=O)C4CC4)cc3)n2)n[nH]1 [tozasertib]
Outline: as §1

doramapimod = compound: Cc1ccc(-n2nc(C(C)(C)C)cc2NC(=O)Nc2ccc(OCCN3CCOCC3)c3ccccc23)cc1 [doramapimod]
Outline: as §1

bafetinib = compound: Cc1ccc(NC(=O)c2ccc(CN3CC[C@H](N(C)C)C3)c(C(F)(F)F)c2)cc1Nc1nccc(-c2cncnc2)n1 [bafetinib]
Outline: as §1

[2] = compound: Cc1cccc(CC(=O)N2CCc3c2ccc(-c2cn(C)c4ncnc(N)c24)c3F)n1
Outline: as §1

Measured: log2 fold change

NMT1 (UniProt P30419)
inactive: lapatinib 0.02 | pictilisib 0.005 | crizotinib -0.006 | [1] 0.016 | duvelisib -0.023 | gandotinib -0.021 | tozasertib 0.012 | doramapimod -0.015 | bafetinib 0.09 | [2] -0.034

NT5DC3 (UniProt Q86UY8)
inactive: lapatinib 0.03 | pictilisib -0.012 | crizotinib 0.014 | [1] -0.073 | duvelisib 0.005 | gandotinib 0.02 | tozasertib 0.008 | doramapimod -0.037 | bafetinib -0.006 | [2] 0.015

NOSTRIN (UniProt Q8IVI9)
inactive: lapatinib -0.022 | pictilisib -0.011 | crizotinib 0.06 | [1] 0.017 | duvelisib 0.047 | gandotinib -0.047 | tozasertib 0.058 | doramapimod -0.03 | bafetinib -0.078 | [2] -0.012

Copied from above (two entries):
NT5DC3 (UniProt Q86UY8)
inactive: lapatinib 0.03 | pictilisib -0.012 | crizotinib 0.014 | [1] -0.073 | duvelisib 0.005 | gandotinib 0.02 | tozasertib 0.008 | doramapimod -0.037 | bafetinib -0.006 | [2] 0.015

NOSTRIN (UniProt Q8IVI9)
inactive: lapatinib -0.022 | pictilisib -0.011 | crizotinib 0.06 | [1] 0.017 | duvelisib 0.047 | gandotinib -0.047 | tozasertib 0.058 | doramapimod -0.03 | bafetinib -0.078 | [2] -0.012

The listing continues:

NT5C3B (UniProt Q969T7)
inactive: lapatinib 0.009 | pictilisib 0.022 | crizotinib -0.043 | [1] -0.054 | duvelisib -0.017 | gandotinib 0.053 | tozasertib 0.046 | doramapimod -0.038 | bafetinib -0.021 | [2] -0.01

NUDT4 isoform 2 (UniProt Q9NZJ9)
inactive: lapatinib -0.002 | pictilisib 0.006 | crizotinib -0.018 | [1] -0.055 | duvelisib -0.013 | gandotinib 0.061 | tozasertib 0.065 | doramapimod -0.009 | bafetinib -0.006 | [2] 0.011

NSUN7 (UniProt Q8NE18)
inactive: lapatinib -0.094 | pictilisib -0.001 | crizotinib -0.374 | [1] -0.039 | gandotinib 0.022 | tozasertib 0.152 | doramapimod 0.045 | bafetinib 0.285 | [2] 0.125

NR2F2 (UniProt P24468)
inactive: lapatinib 0.06 | pictilisib 0.072 | crizotinib -0.022 | [1] -0.163 | duvelisib -0.046 | gandotinib -0.153 | doramapimod -0.005 | bafetinib 0.037 | [2] -0.023

NME2P1 (UniProt O60361)
inactive: lapatinib -0.018 | pictilisib 0.079 | crizotinib -0.427 | [1] -0.354 | duvelisib 0.05 | gandotinib 0.125 | doramapimod 0.16 | bafetinib -0.229 | [2] 0.238

NOS1AP (UniProt O75052)
inactive: lapatinib -0.225 | pictilisib -0.064 | crizotinib -0.229 | [1] -0.377 | gandotinib -0.032 | tozasertib 0.247 | doramapimod 0.34 | bafetinib -0.465 | [2] 0.484

NUMBL (UniProt Q9Y6R0)
inactive: lapatinib 0.01 | pictilisib 0.111 | crizotinib 0.066 | [1] 0.018 | duvelisib 0.162 | gandotinib 0.176 | tozasertib 0.036 | doramapimod 0.247 | bafetinib 0.041 | [2] 0.036

NUDT21 (UniProt O43809)
inactive: lapatinib -0.034 | pictilisib -0.001 | crizotinib 0.038 | [1] -0.012 | duvelisib 0.006 | gandotinib -0.054 | tozasertib 0.011 | doramapimod 0.009 | bafetinib 0.006 | [2] 0.014

NRIP1 (UniProt P48552)
inactive: lapatinib -0.052 | pictilisib -0.007 | crizotinib -0.155 | [1] -0.396 | duvelisib -0.014 | gandotinib 0.407 | doramapimod 0.048 | bafetinib -0.07 | [2] 0.26

NPC2 (UniProt P61916)
inactive: lapatinib 0.036 | pictilisib -0.014 | crizotinib -0.103 | [1] -0.209 | duvelisib 0.008 | gandotinib 0.068 | tozasertib -0.159 | doramapimod 0.034 | bafetinib 0.082 | [2] 0.217

NUDT12 (UniProt Q9BQG2)
inactive: lapatinib -0.006 | pictilisib 0.021 | crizotinib -0.027 | [1] 0.002 | duvelisib 0.004 | gandotinib -0.047 | tozasertib 0.04 | doramapimod 0.014 | bafetinib 0.008 | [2] -0.047

NSMCE1 (UniProt Q8WV22)
inactive: lapatinib -0.047 | pictilisib -0.03 | crizotinib -0.02 | [1] -0.019 | duvelisib 0.029 | gandotinib -0.052 | tozasertib 0.034 | doramapimod 0.024 | bafetinib -0.044 | [2] 0.002

NOC2L (UniProt Q9Y3T9)
inactive: lapatinib -0.049 | pictilisib -0.012 | crizotinib -0.077 | [1] -0.004 | duvelisib -0.074 | gandotinib -0.037 | tozasertib -0.015 | doramapimod 0.03 | bafetinib -0.137 | [2] 0.09

NUDT14 (UniProt O95848)
inactive: lapatinib 0.012 | pictilisib 0.08 | crizotinib 0.025 | [1] -0.065 | duvelisib -0.028 | gandotinib 0.139 | doramapimod -0.051 | bafetinib 0.035 | [2] 0.076

NUP155 (UniProt O75694)
inactive: lapatinib -0.003 | pictilisib -0.055 | crizotinib -0.139 | [1] 0.004 | duvelisib 0.07 | gandotinib -0.12 | tozasertib 0.043 | doramapimod 0.101 | bafetinib -0.018 | [2] 0.032

NRF1 isoform 4 (UniProt Q16656)
inactive: lapatinib -0.005 | pictilisib 0.009 | crizotinib -0.034 | [1] 0.029 | duvelisib -0.023 | gandotinib -0.022 | tozasertib -0.007 | doramapimod -0.008 | bafetinib -0.042 | [2] -0.038

NRDE2 (UniProt Q9H7Z3)
inactive: lapatinib 0.046 | pictilisib -0.014 | duvelisib 0 | bafetinib 0.034

NUDT16L1 (UniProt Q9BRJ7)
inactive: lapatinib -0.001 | pictilisib 0 | crizotinib 0.017 | [1] 0.002 | duvelisib 0.057 | gandotinib -0.177 | tozasertib 0.059 | doramapimod -0.01 | bafetinib -0.018 | [2] 0.056

NPL (UniProt Q9BXD5)
inactive: lapatinib 0.001 | pictilisib -0.043 | [1] -0.305 | duvelisib 0.123 | gandotinib 0.136 | tozasertib -0.023 | bafetinib -0.038 | [2] 0.222

NOTCH1 (UniProt P46531)
inactive: lapatinib -0.044 | crizotinib 0.09 | [1] -0.328 | duvelisib -0.034 | gandotinib -0.117 | tozasertib 0.084 | doramapimod 0.007 | [2] 0.185

NSUN4 (UniProt Q96CB9)
inactive: lapatinib 0.362 | pictilisib 0.215 | crizotinib -0.049 | duvelisib 0.057 | doramapimod 0.035 | bafetinib -0.026
